# Test results reported in the supplement of paper PMC10849652.
# Protein sequences, listed by entry. Tags and fused reporters are not part of them. Lines headed by an entry give the natural chain unless they say otherwise; changes in a name come on top.
# UniProt O95235: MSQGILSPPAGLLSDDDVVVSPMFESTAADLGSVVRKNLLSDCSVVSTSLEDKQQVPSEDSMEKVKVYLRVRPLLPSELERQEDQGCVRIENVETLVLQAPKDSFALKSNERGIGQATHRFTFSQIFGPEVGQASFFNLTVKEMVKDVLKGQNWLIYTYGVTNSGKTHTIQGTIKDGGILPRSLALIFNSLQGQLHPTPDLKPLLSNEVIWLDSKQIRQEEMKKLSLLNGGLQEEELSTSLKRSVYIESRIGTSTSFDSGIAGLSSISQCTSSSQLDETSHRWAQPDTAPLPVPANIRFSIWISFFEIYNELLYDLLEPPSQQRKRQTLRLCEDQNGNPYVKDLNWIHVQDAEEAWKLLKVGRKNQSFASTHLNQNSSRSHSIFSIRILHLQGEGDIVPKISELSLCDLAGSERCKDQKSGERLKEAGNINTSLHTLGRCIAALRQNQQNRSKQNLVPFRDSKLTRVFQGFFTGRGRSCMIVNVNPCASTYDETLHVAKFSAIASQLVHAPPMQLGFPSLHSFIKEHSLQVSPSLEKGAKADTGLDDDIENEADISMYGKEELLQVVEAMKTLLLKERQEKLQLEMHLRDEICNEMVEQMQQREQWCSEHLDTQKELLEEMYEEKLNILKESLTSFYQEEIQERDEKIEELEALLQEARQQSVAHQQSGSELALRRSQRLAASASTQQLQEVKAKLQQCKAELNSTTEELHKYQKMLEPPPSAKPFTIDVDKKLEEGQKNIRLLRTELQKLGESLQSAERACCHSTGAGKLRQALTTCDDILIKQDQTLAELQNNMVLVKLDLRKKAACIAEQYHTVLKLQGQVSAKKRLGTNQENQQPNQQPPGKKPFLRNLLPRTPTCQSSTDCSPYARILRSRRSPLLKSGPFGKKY
# UniProt Q6ZV70: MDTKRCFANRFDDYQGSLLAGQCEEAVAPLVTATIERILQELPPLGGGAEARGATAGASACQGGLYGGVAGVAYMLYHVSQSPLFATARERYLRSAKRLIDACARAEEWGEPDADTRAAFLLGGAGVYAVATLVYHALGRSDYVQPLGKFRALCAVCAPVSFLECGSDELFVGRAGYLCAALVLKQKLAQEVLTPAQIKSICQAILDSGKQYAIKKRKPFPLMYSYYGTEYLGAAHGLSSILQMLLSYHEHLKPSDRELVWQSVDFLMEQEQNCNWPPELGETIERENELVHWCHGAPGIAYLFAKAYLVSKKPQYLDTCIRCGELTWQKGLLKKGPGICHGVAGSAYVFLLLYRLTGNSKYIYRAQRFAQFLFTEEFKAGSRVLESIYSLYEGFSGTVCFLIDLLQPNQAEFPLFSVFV
# UniProt Q8NA19: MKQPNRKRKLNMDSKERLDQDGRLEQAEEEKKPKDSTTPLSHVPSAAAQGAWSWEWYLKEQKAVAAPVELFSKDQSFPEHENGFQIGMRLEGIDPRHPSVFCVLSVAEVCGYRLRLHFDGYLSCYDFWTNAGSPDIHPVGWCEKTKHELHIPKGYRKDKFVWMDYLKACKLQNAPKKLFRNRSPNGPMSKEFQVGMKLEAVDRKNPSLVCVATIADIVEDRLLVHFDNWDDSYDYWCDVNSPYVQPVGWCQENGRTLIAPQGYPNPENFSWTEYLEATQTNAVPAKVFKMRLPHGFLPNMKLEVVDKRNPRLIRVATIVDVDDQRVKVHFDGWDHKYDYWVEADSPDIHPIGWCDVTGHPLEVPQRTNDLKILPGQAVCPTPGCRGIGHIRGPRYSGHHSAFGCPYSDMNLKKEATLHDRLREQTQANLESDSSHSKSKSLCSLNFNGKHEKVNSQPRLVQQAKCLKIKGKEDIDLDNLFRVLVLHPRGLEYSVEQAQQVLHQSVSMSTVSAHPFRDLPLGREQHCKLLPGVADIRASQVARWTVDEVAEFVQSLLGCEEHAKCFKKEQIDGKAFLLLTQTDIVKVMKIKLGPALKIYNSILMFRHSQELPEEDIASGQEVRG
# UniProt P83111: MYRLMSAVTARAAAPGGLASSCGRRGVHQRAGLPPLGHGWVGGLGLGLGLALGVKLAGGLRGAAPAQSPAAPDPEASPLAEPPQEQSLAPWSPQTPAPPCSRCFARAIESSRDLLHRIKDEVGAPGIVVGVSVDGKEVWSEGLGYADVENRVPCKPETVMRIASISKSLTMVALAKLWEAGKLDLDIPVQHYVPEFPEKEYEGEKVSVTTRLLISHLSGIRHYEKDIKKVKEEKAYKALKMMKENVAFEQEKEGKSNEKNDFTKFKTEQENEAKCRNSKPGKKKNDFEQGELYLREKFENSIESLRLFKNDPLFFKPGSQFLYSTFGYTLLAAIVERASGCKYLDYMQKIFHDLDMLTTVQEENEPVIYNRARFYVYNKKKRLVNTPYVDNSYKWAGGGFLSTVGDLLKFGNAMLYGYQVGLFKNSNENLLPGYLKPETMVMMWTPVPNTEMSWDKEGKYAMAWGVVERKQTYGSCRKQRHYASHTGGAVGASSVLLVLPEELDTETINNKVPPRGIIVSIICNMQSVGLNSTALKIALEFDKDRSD
# UniProt Q8IXQ5, whole entry, looked up: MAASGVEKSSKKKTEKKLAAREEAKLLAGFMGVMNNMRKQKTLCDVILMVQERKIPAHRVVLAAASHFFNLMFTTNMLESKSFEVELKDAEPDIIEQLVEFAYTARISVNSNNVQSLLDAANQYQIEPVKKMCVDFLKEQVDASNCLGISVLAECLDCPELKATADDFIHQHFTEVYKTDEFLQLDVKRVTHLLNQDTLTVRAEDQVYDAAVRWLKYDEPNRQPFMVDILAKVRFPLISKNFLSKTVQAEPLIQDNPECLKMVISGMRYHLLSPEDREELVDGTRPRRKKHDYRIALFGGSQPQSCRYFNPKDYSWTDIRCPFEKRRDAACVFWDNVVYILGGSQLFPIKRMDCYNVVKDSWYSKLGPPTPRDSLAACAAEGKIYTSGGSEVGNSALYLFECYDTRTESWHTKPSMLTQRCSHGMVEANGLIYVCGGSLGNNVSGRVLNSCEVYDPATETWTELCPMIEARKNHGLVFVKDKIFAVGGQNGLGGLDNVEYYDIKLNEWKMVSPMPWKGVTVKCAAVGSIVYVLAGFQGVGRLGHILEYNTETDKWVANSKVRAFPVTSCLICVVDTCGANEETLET
# UniProt P55268: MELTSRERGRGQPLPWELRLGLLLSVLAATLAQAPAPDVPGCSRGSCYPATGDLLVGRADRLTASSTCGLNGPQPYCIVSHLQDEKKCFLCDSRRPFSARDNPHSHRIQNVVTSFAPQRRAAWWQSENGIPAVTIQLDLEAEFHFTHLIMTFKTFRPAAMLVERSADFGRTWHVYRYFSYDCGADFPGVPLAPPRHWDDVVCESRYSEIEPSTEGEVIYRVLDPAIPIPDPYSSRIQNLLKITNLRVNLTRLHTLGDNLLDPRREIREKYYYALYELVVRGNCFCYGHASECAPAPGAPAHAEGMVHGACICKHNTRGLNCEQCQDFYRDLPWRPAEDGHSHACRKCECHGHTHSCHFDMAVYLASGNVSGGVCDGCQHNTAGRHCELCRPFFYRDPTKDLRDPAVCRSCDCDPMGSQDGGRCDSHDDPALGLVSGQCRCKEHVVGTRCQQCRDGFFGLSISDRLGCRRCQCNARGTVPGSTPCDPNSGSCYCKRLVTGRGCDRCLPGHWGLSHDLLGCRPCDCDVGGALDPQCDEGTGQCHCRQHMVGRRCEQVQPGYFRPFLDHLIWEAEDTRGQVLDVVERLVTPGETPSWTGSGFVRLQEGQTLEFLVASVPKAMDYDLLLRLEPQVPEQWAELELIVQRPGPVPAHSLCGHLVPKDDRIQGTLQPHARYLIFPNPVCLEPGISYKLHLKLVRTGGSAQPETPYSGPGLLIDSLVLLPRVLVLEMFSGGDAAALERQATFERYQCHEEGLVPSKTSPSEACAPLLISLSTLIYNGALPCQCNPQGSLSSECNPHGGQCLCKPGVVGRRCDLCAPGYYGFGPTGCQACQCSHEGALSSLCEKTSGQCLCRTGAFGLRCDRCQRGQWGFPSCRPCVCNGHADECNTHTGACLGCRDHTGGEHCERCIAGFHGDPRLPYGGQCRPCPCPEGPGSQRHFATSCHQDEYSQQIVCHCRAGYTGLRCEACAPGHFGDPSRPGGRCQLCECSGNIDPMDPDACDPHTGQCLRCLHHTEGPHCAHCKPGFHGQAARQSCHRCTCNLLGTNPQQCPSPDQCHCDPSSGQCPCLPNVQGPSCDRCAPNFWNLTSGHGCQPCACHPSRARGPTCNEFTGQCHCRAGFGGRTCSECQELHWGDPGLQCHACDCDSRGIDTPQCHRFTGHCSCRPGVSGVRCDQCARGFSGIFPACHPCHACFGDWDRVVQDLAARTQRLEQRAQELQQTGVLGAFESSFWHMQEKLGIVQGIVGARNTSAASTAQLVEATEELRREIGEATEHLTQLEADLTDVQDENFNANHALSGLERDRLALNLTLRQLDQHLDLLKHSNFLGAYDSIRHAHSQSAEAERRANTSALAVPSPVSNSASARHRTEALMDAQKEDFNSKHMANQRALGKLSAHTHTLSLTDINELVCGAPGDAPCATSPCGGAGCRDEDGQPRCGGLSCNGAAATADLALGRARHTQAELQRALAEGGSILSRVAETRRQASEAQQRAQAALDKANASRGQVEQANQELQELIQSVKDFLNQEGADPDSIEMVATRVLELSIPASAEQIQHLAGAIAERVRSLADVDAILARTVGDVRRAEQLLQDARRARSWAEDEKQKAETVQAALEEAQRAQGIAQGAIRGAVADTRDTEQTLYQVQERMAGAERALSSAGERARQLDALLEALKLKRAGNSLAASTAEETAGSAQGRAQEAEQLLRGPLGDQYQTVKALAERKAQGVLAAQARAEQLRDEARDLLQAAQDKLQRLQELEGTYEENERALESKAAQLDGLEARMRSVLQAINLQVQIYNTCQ
# UniProt Q9P2K6: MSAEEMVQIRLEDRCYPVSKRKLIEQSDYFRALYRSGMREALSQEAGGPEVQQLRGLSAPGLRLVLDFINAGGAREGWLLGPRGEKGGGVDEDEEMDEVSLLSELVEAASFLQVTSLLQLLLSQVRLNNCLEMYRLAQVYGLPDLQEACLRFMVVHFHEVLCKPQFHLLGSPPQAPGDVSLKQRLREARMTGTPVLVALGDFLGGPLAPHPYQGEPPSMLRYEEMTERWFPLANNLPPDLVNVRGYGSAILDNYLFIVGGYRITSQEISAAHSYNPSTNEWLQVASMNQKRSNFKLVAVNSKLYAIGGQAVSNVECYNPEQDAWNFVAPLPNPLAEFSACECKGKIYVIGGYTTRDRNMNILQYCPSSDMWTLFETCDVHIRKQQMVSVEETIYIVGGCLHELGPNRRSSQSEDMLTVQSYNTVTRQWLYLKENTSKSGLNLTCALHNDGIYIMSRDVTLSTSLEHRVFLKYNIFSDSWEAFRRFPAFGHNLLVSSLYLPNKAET
# UniProt Q53HC5: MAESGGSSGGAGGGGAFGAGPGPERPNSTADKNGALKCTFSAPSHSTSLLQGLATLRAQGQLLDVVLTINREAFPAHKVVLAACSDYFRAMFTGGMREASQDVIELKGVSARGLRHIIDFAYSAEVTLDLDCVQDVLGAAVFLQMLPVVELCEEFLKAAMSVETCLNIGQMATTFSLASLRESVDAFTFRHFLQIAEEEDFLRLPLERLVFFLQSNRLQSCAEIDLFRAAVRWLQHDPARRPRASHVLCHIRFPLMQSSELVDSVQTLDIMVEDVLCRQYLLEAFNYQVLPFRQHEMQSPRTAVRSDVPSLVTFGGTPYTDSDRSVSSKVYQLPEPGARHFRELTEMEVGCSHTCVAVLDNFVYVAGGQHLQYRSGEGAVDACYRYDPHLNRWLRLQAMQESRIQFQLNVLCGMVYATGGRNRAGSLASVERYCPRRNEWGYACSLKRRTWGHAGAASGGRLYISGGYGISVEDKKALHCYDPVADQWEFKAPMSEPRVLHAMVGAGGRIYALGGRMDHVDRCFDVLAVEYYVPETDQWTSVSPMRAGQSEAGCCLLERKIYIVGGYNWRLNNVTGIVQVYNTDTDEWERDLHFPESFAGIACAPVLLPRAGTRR
# UniProt O15131, whole entry, looked up: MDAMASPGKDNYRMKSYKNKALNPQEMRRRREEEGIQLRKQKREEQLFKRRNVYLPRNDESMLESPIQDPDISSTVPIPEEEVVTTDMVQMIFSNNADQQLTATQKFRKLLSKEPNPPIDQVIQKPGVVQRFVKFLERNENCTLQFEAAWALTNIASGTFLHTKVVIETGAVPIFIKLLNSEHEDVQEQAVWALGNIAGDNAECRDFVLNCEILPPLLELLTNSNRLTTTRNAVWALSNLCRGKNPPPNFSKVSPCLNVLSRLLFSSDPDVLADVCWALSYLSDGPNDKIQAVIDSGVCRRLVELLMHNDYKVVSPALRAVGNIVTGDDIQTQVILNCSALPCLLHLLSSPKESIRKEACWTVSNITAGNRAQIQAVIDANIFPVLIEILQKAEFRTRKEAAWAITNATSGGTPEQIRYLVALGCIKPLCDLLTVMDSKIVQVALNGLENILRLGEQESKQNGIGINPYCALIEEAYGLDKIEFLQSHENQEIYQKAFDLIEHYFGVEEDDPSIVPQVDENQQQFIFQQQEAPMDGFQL
# This is one part of the list.
# Compound: NCC(=O)Nc1ccc(-n2nc(C(F)(F)F)cc2-c2ccc3c(ccc4ccccc43)c2)cc1
# Test: log2 fold change, soluble protein after heating vs DMSO (PISA); higher = thermal stabilisation; K562 lysate, 10 uM; active = over 0.2 and 3.5 SD of the protein, either way, in both replicates (recomputed)
# Procedure, shortened: (§1)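 Following dounce homogenisation of K562 pellets in PBS pH 7.4 with 1 mM MgCl2, crude extract at 1 mg/mL protein was incubated for 30 min with 10 μM compound. Aliquots were then heated for 3 min over 48°C-58°C and pooled, NP-40 was added to 0.5% at 4°C, and soluble protein was recovered as the supernatant at 21,000xg for 90 min. Channel-sum-equalised TMTpro 16plex LC-MS/MS quantified this protein. Each value, from duplicates, is a log-two fold change in thermal stability relative to solvent controls.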
row,Target,log2 fold change
1,KIF21B (UniProt O75037),inactive: 0.229
2,KIF20A (UniProt O95235),inactive: -0.033
3,KLHL22 (UniProt Q53GT1),inactive: -0.295
4,KIAA0930 isoform 2 (UniProt Q6ICG6),inactive: 0.046
5,KTN1 (UniProt G3V5Q0),inactive: 0.039
6,LANCL3 (UniProt Q6ZV70),inactive: -0.042
7,L3MBTL4 (UniProt Q8NA19),inactive: 0.013
8,LACTB (UniProt P83111),inactive: 0.038
9,LAMA2 (UniProt P24043),inactive: 0.12
10,KLHL7 isoform 3 (UniProt Q8IXQ5),inactive: 0.112

# Compound: O=C(CCCCCCC(=O)Nc1ccccc1)NO [vorinostat]
# Test: as above
# Procedure, shortened: as §1
row,Target,log2 fold change
1,KIF21A (UniProt H0YI78),inactive: -0.113
2,KLHL17 (UniProt Q6TDP4),inactive: -0.141
3,KLF1 (UniProt Q13351),inactive: -0.278
4,KMT2B (UniProt Q9UMN6),inactive: 0.531
5,LAMA5 (UniProt O15230),inactive: 0.008
6,KRT13 (UniProt K7EMD9),inactive: 0.227
7,KLHL22 (UniProt Q53GT1),inactive: -0.082
8,KLC1 isoform 10 (UniProt Q07866),inactive: -0.144
9,KLHL20 (UniProt Q9Y2M5),inactive: 0.039
10,KRAS isoform 2 (UniProt P01116),inactive: 0.068
11,LAMB2 (UniProt P55268),inactive: -0.383
12,KLHL42 (UniProt Q9P2K6),inactive: 0.08
13,KRT87P (UniProt A6NCN2),inactive: 0.074
14,KLHL26 (UniProt Q53HC5),inactive: -0.015
15,KPNA5 (UniProt O15131),inactive: -0.072
16,KIAA0586 isoform 3 (UniProt Q9BVV6),inactive: -0.081
17,LAMP2 isoform 2 (UniProt P13473),inactive: 0.081
18,KLHDC8B (UniProt Q8IXV7),inactive: 0.066
19,LAPTM4B (UniProt Q86VI4),inactive: 0.044
20,KTN1 (UniProt G3V5Q0),inactive: -0.069
21,LACTB (UniProt P83111),inactive: 0.011
22,LACRT (UniProt Q9GZZ8),inactive: 0.303
23,LAMA2 (UniProt P24043),inactive: 0.145
24,KIF1B isoform 3 (UniProt O60333),inactive: -0.305
